Assay results as given in US20180194862A1.
These are yes or no findings as the source states them, for the method shown. Some binding calls cover weakened binding; strength is not graded here.

By UniProt entry, the sequences of proteins in these tests, tags left out. Where a name states a change or a piece, a line headed by the entry shows the natural chain unless it says otherwise. Chains listed by the source or under a name are the forms on record and can include a tag or linker. Residues count along the entry.
cynomolgus CD40 on cells (HEK293 stable transfectants, cynomolgus PBMC B cells) (G7PG38, form named): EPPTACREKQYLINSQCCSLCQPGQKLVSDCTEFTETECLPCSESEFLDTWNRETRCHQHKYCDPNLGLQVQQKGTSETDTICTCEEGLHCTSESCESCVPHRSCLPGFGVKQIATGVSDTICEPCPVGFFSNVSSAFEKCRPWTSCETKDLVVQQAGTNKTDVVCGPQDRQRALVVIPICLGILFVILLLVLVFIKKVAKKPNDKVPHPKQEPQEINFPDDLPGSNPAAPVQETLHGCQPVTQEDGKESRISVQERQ
UniProt A9YYE7, residues 24-186: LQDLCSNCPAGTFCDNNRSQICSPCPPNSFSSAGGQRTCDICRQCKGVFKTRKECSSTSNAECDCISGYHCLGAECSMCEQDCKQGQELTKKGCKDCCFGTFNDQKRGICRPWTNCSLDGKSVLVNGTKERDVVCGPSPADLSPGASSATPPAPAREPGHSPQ

What was measured:
[1] = target: cynomolgus CD40 on cells (HEK293 stable transfectants, cynomolgus PBMC B cells) (cynomolgus) (UniProt G7PG38); test: FACS, PBMC, CF640R-labelled Ab
[2] = target: cynomolgus CD40 on cells (HEK293 stable transfectants, cynomolgus PBMC B cells) (cynomolgus) (UniProt G7PG38); test: FACS, HEK293 transfectants
[3] = target: cynomolgus 4-1BB (cynomolgus) (UniProt A9YYE7); test: SPR

Binder	binding [1]	binding [2]	binding [3]
huAb6-1 (antibody, human IgG1, V domains shown) VH: EVQLVQSGAEVKKPGSSVKVSCKASGYTFTSYWMHWVRQAPGQGLEWIGNIDPSNGETHYNQKFKDRATLTVDKSTSTAYMELSSLRSEDTAVYYCARERIYYSGSTYDGYFDVWGQGTTVTVSS VL: DIQLTQSPSFLSASVGDRVTITCSASSSLSYMHWYQQKPGKSPKRWIYDTSKLASGVPSRFSGSGSGTEYTLTISSLQPEDFATYYCQQWSSNPWTFGGGTKVEIK	binds	binds	–
huAb6-2 (antibody, human IgG1, V domains shown) VH: EVQLVQSGAEVKKPGSSVKVSCKASGYTFTSYWMHWVRQAPGQGLEWIGNIDPSNGETHYNQKFKDRVTITVDKSTSTAYMELSSLRSEDTAVYYCARERIYYSGSTYDGYFDVWGQGTTVTVSS VL: DIQLTQSPSFLSASVGDRVTITCSASSSLSYMHWYQQKPGKSPKRWIYDTSKLASGVPSRFSGSGSGTEYTLTISSLQPEDFATYYCQQWSSNPWTFGGGTKVEIK	binds	binds	–
huAb6-3 (antibody, human IgG1, V domains shown) VH: EVQLVQSGAEVKKPGSSVKVSCKASGYTFTSYWMHWVRQAPGQGLEWIGNIDPSNGETHYAQKFQGRVTITVDKSTSTAYMELSSLRSEDTAVYYCARERIYYSGSTYDGYFDVWGQGTTVTVSS VL: DIQLTQSPSFLSASVGDRVTITCSASSSLSYMHWYQQKPGKSPKRWIYDTSKLASGVPSRFSGSGSGTEYTLTISSLQPEDFATYYCQQWSSNPWTFGGGTKVEIK	binds	binds	–
huAb8-2 (antibody, human IgG1, V domains shown) VH: EVQLVQSGAEVKKPGSSVKVSCKASGYTFTDYYINWVRQAPGQGLEWIGWIFPGSGSVYSNEQFKGRATLTVDRSTSTAYMELSSLRSEDTAVYFCASSLGKFAYWGQGTLVTVSS VL: DIQMTQSPSSLSASVGDRVTITCKASQSVVTAVAWYQQKPGKSPKLLIYSASNRYTGVPSRFSGSGSGTDFTLTISSLQPEDFATYFCQQYSSYPYTFGGGTKVEIK	binds	binds	–
TABBY106-rIgG1 (antibody, V domains shown) VH: QVQLQQSGAELAKPGTSVKLSCKASGYTFTSYYIYWVKQRPGQGLEWIGNIWPGNGGTFYGEKFMGKATFTADTSSSTAYMLLGSLTPEDSAYYFCARRPDYSGDDYFDYWGQGVLVTVSS VL: QVVLTQPKSVSTSLKSTVKLSCKLNSGNIGSYYVHWYQQHAGRSPTTMIYRDDKRPDGVPDRFSGSIDSSSNSAFLTINNVQTEDDAIYFCHSYDSTITPVFGGGTKLTVL	–	–	binds
TABBY107-rIgG1 (antibody, V domains shown) VH: QVKLVQSGAALVKPGASVKMSCKASDYTFNDYWVSWVKQRHGESLEWIGEIYPNSGATNFNGKFRGKATLTVDNPTSTAYMELSRLTSEDSAIYYCTREYTRDWFAYWGQGTLVTVSS VL: DVVLTQTPSILSATIGQSVSISCRSSQSLLDSDGNTYLYWFLQRPGQSPQRLIYLVSNLGSGVPNRFSGSGSGTDFTLKISGVEAEDLGIYYCMQPTHAPYTFGAGTKLELK	–	–	binds

The next lines start with the values.

binding [1]	binding [2]	binding [3]	Binder
binds	binds	–	huAb9-6 (antibody, human IgG1, V domains shown) VH: EVQLQESGPGLVKPSETLSLTCTVSGYSISSNYYWNWIRQPPGKGLEWMGYIRYDGSNNYNPSLKSRVTISRDTSKNQFSLKLSSVTAADTAVYYCARLDYWGQGTTVTVSS VL: DAVMTQTPLSLSVTPGQPASISCRSSQSLENTNGNTFLNWYLQKPGQSPQLLIYRVSNRFSGVPDRFSGSGSGTDFTLKISRVEAEDVGVYYCLQVTHVPFTFGQGTKLEIK
binds	binds	–	huAb9-4 (antibody, human IgG1, V domains shown) VH: EVQLQESGPGLVKPSETLSLTCTVSGYSITSNYYWNWIRQPPGKGLEWMGYIRYDGSNNYNPSLKNRITISRDTSKNQFSLKLSSVTAADTAVYYCARLDYWGQGTTVTVSS VL: DAVMTQTPLSLSVTPGQPASISCRSSQSLENTNGNTFLNWYLQKPGQSPQLLIYRVSNRFSGVPDRFSGSGSGTDFTLKISRVEAEDVGVYYCLQVTHVPFTFGQGTKLEIK
binds	binds	–	huAb9-1 (antibody, human IgG1, V domains shown) VH: EVQLQESGPGLVKPSETLSLTCTVSGYSITSNYYWNWIRQPPGKGLEWMGYIRYDGSNNYNPSLKNRITISRDTSKNQFSLKLSSVTAADTAVYYCARLDYWGQGTTVTVSS VL: DAVMTQTPLSLSVTPGQPASISCRSSQSLENTNGNTFLNWFLQKPGQSPQLLIYRVSNRFSGVPDRFSGSGSGTDFTLKISRVEAEDVGVYFCLQVTHVPFTFGQGTKLEIK
binds	binds	–	huAb9-2 (antibody, human IgG1, V domains shown) VH: EVQLQESGPGLVKPSETLSLTCTVSGYSITSNYYWNWIRQPPGKGLEWMGYIRYDGSNNYNPSLKNRVTISRDTSKNQFSLKLSSVTAADTAVYYCARLDYWGQGTTVTVSS VL: DAVMTQTPLSLSVTPGQPASISCRSSQSLENTNGNTFLNWFLQKPGQSPQLLIYRVSNRFSGVPDRFSGSGSGTDFTLKISRVEAEDVGVYFCLQVTHVPFTFGQGTKLEIK
binds	binds	–	huAb9-3 (antibody, human IgG1, V domains shown) VH: EVQLQESGPGLVKPSETLSLTCTVSGYSISSNYYWNWIRQPPGKGLEWMGYIRYDGSNNYNPSLKSRVTISRDTSKNQFSLKLSSVTAADTAVYYCARLDYWGQGTTVTVSS VL: DAVMTQTPLSLSVTPGQPASISCRSSQSLENTNGNTFLNWFLQKPGQSPQLLIYRVSNRFSGVPDRFSGSGSGTDFTLKISRVEAEDVGVYFCLQVTHVPFTFGQGTKLEIK
binds	binds	–	huAb8-3 (antibody, human IgG1, V domains shown) VH: EVQLVQSGAEVKKPGSSVKVSCKASGYTFTDYYINWVRQAPGQGLEWIGWIFPGSGSVYCNEQFKGRVTITVDKSTSTAYMELSSLRSEDTAVYYCASSLGKFAYWGQGTLVTVSS VL: DIQMTQSPSSLSASVGDRVTITCKASQSVVTAVAWYQQKPGKSPKLLIYSASNRYTGVPSRFSGSGSGTDFTLTISSLQPEDFATYFCQQYSSYPYTFGGGTKVEIK
